Test results from patent US11433099B2, “Immunotherapy with B*08 restricted peptides and combination of peptides against cancers and related methods” (Immatics Biotechnologies GmbH, priority 2018, dated 2022).

System: HLA peptide pools from tumor and normal tissue samples
Experiment: Identification and relative LC-MS quantitation of HLA-presented tumor associated peptides (presentation profiles)
Parameters: species or system human
Conditions: cancer entities on which the peptide was found presented (Table 8A); value = entity abbreviations

**Q.** Which “Peptide Presentation on cancer entities” value does the source give for “1 (ALKLKVAEL; listed as Homo sapiens) [compound 1]” here?
**A.** NSCLCadeno, NSCLCsquam

**Q.** With “3 (SIQSRYISM; listed as Homo sapiens) [compound 3]” as the substance, how does the “Peptide Presentation on cancer entities” value read?
**A.** MEL

**Q.** Which “Peptide Presentation on cancer entities” value does the source give for “4 (QVMPKTGL; listed as Homo sapiens) [compound 4]” here?
**A.** HCC, MEL, OSCAR

**Q.** With “6 (NRQKRFVL; listed as Homo sapiens) [compound 6]” as the substance, how does the “Peptide Presentation on cancer entities” value read?
**A.** NSCLCadeno, PACA, UBC, UEC

**Q.** Which “Peptide Presentation on cancer entities” value does the source give for “7 (AARLRPAL; listed as Homo sapiens) [compound 7]” here?
**A.** CLL

**Q.** Which “Peptide Presentation on cancer entities” value does the source give for “8 (FVRPKLVTI; listed as Homo sapiens) [compound 8]” here?
**A.** GBM

**Q.** “10 (MGKFKQCF; listed as Homo sapiens) [compound 10]” was tested. Which “Peptide Presentation on cancer entities” value did it give?
**A.** UEC

**Q.** “12 (DFYLRSSAF; listed as Homo sapiens) [compound 12]” was tested. Which “Peptide Presentation on cancer entities” value did it give?
**A.** NSCLCsquam

**Q.** “13 (EPFTRPVL; listed as Homo sapiens) [compound 13]” was tested. Which “Peptide Presentation on cancer entities” value did it give?
**A.** OSCAR, PACA, RCC, SCLC, UBC

**Q.** How did the “Peptide Presentation on cancer entities” value turn out when “14 (ELILKRCL; listed as Homo sapiens) [compound 14]” was run?
**A.** NSCLCadeno, NSCLCsquam

**Q.** Which “Peptide Presentation on cancer entities” value does the source give for “16 (NRKPRTPF; listed as Homo sapiens) [compound 16]” here?
**A.** UEC

**Q.** Which “Peptide Presentation on cancer entities” value does the source give for “18 (LSLVRKAL; listed as Homo sapiens) [compound 18]” here?
**A.** HNSCC

**Q.** For “19 (FTLLRRLSL; listed as Homo sapiens) [compound 19]”, which “Peptide Presentation on cancer entities” value is on record?
**A.** MEL

**Q.** For “23 (DIKKTNESL; listed as Homo sapiens) [compound 23]”, which “Peptide Presentation on cancer entities” value is on record?
**A.** BRCA, CLL, HNSCC, NHL, NSCLCsquam

**Q.** With “24 (DLVLKRCL; listed as Homo sapiens) [compound 24]” as the substance, how does the “Peptide Presentation on cancer entities” value read?
**A.** MEL

**Q.** For “25 (HLHPKGREL; listed as Homo sapiens) [compound 25]”, which “Peptide Presentation on cancer entities” value is on record?
**A.** HNSCC, NSCLCadeno

**Q.** How did the “Peptide Presentation on cancer entities” value turn out when “26 (DARCKLAEL; listed as Homo sapiens) [compound 26]” was run?
**A.** NSCLCadeno

**Q.** Which “Peptide Presentation on cancer entities” value does the source give for “27 (WVLTNIVAL; listed as Homo sapiens) [compound 27]” here?
**A.** NSCLCadeno, NSCLCsquam

**Q.** “29 (ELFLHPVL; listed as Homo sapiens) [compound 29]” was tested. Which “Peptide Presentation on cancer entities” value did it give?
**A.** CLL, MEL, NHL, NSCLCother

**Q.** How did the “Peptide Presentation on cancer entities” value turn out when “30 (DLQKKAQAL; listed as Homo sapiens) [compound 30]” was run?
**A.** BRCA, MEL, NSCLCsquam, OSCAR, PACA, PRCA

**Q.** How did the “Peptide Presentation on cancer entities” value turn out when “31 (SPRVKWTF; listed as Homo sapiens) [compound 31]” was run?
**A.** GBM

**Q.** Which “Peptide Presentation on cancer entities” value does the source give for “32 (NPYLKLVL; listed as Homo sapiens) [compound 32]” here?
**A.** CLL, NHL, NSCLCother, NSCLCsquam, SCLC

**Q.** With “33 (WIGLRNLDL; listed as Homo sapiens) [compound 33]” as the substance, how does the “Peptide Presentation on cancer entities” value read?
**A.** CLL

**Q.** With “34 (IYRKKYIL; listed as Homo sapiens) [compound 34]” as the substance, how does the “Peptide Presentation on cancer entities” value read?
**A.** CLL, NHL, UBC

**Q.** With “35 (ELFQRPVL; listed as Homo sapiens) [compound 35]” as the substance, how does the “Peptide Presentation on cancer entities” value read?
**A.** CLL, NHL, NSCLCother, NSCLCsquam

**Q.** Which “Peptide Presentation on cancer entities” value does the source give for “36 (IVKIKVQEL; listed as Homo sapiens) [compound 36]” here?
**A.** CLL, NHL, NSCLCother, NSCLCsquam

**Q.** For “37 (EAFSRASL; listed as Homo sapiens) [compound 37]”, which “Peptide Presentation on cancer entities” value is on record?
**A.** PRCA

**Q.** For “38 (EVYQKIIL; listed as Homo sapiens) [compound 38]”, which “Peptide Presentation on cancer entities” value is on record?
**A.** CCC, HNSCC, NHL, NSCLCadeno, NSCLCother

**Q.** “39 (DAKSKIEQI; listed as Homo sapiens) [compound 39]” was tested. Which “Peptide Presentation on cancer entities” value did it give?
**A.** HNSCC, NSCLCsquam, PACA

**Q.** “41 (RGALRTLSL; listed as Homo sapiens) [compound 41]” was tested. Which “Peptide Presentation on cancer entities” value did it give?
**A.** NSCLCadeno, UEC

**Q.** “42 (VLRRKTLL; listed as Homo sapiens) [compound 42]” was tested. Which “Peptide Presentation on cancer entities” value did it give?
**A.** CLL, GC, NHL, NSCLCsquam, UEC
